Test results published in patent US10227357B2, “Compounds and methods for kinase modulation, and indications therefor” (Plexxikon Inc., priority 2012, dated 2019).
Some of these results come from one statement about several compounds together.

Sequences of proteins named here, by UniProt entry; tags and fusion partners are left off.
UniProt P10721, whole entry D816V: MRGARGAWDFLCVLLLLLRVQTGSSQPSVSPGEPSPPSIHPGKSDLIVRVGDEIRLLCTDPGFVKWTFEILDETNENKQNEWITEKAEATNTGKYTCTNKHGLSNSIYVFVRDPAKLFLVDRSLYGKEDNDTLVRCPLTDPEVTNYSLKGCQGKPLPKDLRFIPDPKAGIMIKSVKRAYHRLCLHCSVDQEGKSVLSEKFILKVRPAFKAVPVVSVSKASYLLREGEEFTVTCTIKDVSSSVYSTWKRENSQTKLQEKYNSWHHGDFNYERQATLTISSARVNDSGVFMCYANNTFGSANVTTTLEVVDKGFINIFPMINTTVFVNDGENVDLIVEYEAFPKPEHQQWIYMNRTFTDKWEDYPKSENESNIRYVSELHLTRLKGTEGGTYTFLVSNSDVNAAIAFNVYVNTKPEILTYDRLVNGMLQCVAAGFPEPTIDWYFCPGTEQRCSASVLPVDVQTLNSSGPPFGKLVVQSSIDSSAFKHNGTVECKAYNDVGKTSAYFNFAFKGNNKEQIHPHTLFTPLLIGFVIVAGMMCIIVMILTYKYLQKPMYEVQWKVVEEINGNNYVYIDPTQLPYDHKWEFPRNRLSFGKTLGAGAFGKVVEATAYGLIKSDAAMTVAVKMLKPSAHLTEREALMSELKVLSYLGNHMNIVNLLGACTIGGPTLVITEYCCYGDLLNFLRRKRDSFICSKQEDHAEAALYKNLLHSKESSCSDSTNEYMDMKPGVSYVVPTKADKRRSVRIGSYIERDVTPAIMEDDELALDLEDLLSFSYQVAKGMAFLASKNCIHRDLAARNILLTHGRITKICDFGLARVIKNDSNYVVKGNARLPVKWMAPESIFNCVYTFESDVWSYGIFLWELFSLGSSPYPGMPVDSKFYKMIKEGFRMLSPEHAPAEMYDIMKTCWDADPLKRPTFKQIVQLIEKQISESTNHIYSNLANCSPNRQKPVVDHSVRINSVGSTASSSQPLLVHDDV

Target: BaF3-FL KIT D816V cells (Homo sapiens, UniProt P10721, D816V, cells depend on it, form not given)
Assay: Cell-based assay of c-Kit mutant kinase activity, BaF3-FL KIT D816V cell proliferation (ATPlite)
Details: in at least one of the c-kit cell assays described in Example 28 (BaF3-FL KIT D816V or BaF3-FL KIT V560G/D816V); read-out: IC50 (the source's name)

Row | Structure (SMILES) | GI50
1 | O=C(Nc1ccc(F)cc1)N1CC2CCC(C1)N2c1ncnc2cc(-c3ccc(F)cc3)sc12 [P-0549, N-(4-fluorophenyl)-8-[6-(4-fluorophenyl)thieno[3,2-d]pyrimidin-4-yl]-3,8-diazabicyclo[3.2.1]octane-3-carboxamide] | < 10 µM
2 | COc1cccc([C@H](C)NC(=O)N2CC3CCC(C2)N3c2ncnc3cc(-c4ccc(F)cc4)sc23)c1 [P-0550, 8-[6-(4-fluorophenyl)thieno[3,2-d]pyrimidin-4-yl]-N-[(1S)-1-(3-methoxyphenyl)ethyl]-3,8-diazabicyclo[3.2.1]octane-3-carboxamide] | < 10 µM
3 | COc1cccc(CNC(=O)N2CC3CCC(C2)N3c2ncnc3cc(-c4ccc(F)cc4)sc23)c1 [P-0551, 8-[6-(4-fluorophenyl)thieno[3,2-d]pyrimidin-4-yl]-N-[(3-methoxyphenyl)methyl]-3,8-diazabicyclo[3.2.1]octane-3-carboxamide] | < 10 µM
4 | C[C@H](NC(=O)N1CCN(c2ncnc3cc(C4=CCN(S(C)(=O)=O)CC4)sc23)CC1(C)C)c1cccc(Cl)c1 [P-0553, N-[(1S)-1-(3-chlorophenyl)ethyl]-2,2-dimethyl-4-[6-(1-methylsulfonyl-3,6-dihydro-2H-pyridin-4-yl)thieno[3,2-d]pyrimidin-4-yl]piperazine-1-carboxamide] | < 10 µM
5 | O=C(N1CC=C(c2cc3ncnc(-c4ccc(NS(=O)(=O)C5CC5)cc4)c3s2)CC1)N1CCOCC1 [P-0554, N-[4-[6-[1-(morpholine-4-carbonyl)-3,6-dihydro-2H-pyridin-4-yl]thieno[3,2-d]pyrimidin-4-yl]phenyl]cyclopropanesulfonamide] | < 10 µM
6 | COc1cc(-c2cc3ncnc(N4CCN(C(=O)N[C@@H](C)c5cccc(Cl)c5)C(C)(C)C4)c3s2)ccn1 [P-0556, N-[(1S)-1-(3-chlorophenyl)ethyl]-4-[6-(2-methoxy-4-pyridyl)thieno[3,2-d]pyrimidin-4-yl]-2,2-dimethyl-piperazine-1-carboxamide] | < 10 µM
7 | Cc1nc(C)c(-c2cc3ncnc(N4CCN(C(=O)N[C@@H](C)c5cccc(Cl)c5)C(C)(C)C4)c3s2)s1 [P-0557, N-[(1S)-1-(3-chlorophenyl)ethyl]-4-[6-(2,4-dimethylthiazol-5-yl)thieno[3,2-d]pyrimidin-4-yl]-2,2-dimethyl-piperazine-1-carboxamide] | < 10 µM
8 | C[C@H](NC(=O)N1CCN(c2ncnc3cc(N4CCOCC4)sc23)CC1(C)C)c1cccc(Cl)c1 [P-0558, N-[(1S)-1-(3-chlorophenyl)ethyl]-2,2-dimethyl-4-(6-morpholinothieno[3,2-d]pyrimidin-4-yl)piperazine-1-carboxamide] | < 10 µM
9 | CC(=N)Nc1ccc(-c2ncnc3cc(C4=CCN(C(=O)N5CCOCC5)CC4)sc23)cc1 [P-0559, N-[4-[6-[1-(morpholine-4-carbonyl)-3,6-dihydro-2H-pyridin-4-yl]thieno[3,2-d]pyrimidin-4-yl]phenyl]acetamidine] | < 10 µM
10 | COc1cccc([C@H](C)NC(=O)N2CCN(c3ncnc4cc(N5CCOCC5)sc34)CC2(C)C)c1 [P-0560, N-[(1S)-1-(3-methoxyphenyl)ethyl]-2,2-dimethyl-4-(6-morpholinothieno[3,2-d]pyrimidin-4-yl)piperazine-1-carboxamide] | < 10 µM
11 | COc1cccc(CNC(=O)N2[C@H](C)CN(c3ncnc4cc(-c5ccc(F)cc5)sc34)C[C@@H]2C)c1 [P-0562, (2R,6S)-4-[6-(4-fluorophenyl)thieno[3,2-d]pyrimidin-4-yl]-N-[(3-methoxyphenyl)methyl]-2,6-dimethyl-piperazine-1-carboxamide] | < 10 µM
12 | COc1cccc([C@H](C)NC(=O)N2[C@H](C)CN(c3ncnc4cc(-c5ccc(F)cc5)sc34)C[C@@H]2C)c1 [P-0563, (2R,6S)-4-[6-(4-fluorophenyl)thieno[3,2-d]pyrimidin-4-yl]-N-[(1S)-1-(3-methoxyphenyl)ethyl]-2,6-dimethyl-piperazine-1-carboxamide] | < 10 µM
13 | Cc1nn(C)cc1-c1cc2ncnc(N3CCN(C(=O)N[C@@H](C)c4cccc(Cl)c4)C(C)(C)C3)c2s1 [P-0564, N-[(1S)-1-(3-chlorophenyl)ethyl]-4-[6-(1,3-dimethylpyrazol-4-yl)thieno[3,2-d]pyrimidin-4-yl]-2,2-dimethyl-piperazine-1-carboxamide] | < 10 µM
14 | C[C@H](NC(=O)N1CC2CCC1CN2c1ncnc2cc(-c3ccc(F)cc3)sc12)c1cccc(Cl)c1 (stereo partly drawn) [P-0565, N-[(1S)-1-(3-chlorophenyl)ethyl]-5-[6-(4-fluorophenyl)thieno[3,2-d]pyrimidin-4-yl]-2,5-diazabicyclo[2.2.2]octane-2-carboxamide] | < 10 µM
15 | COc1cccc([C@H](C)NC(=O)N2CC3CCC2CN3c2ncnc3cc(-c4ccc(F)cc4)sc23)c1 (stereo partly drawn) [P-0566, 5-[6-(4-fluorophenyl)thieno[3,2-d]pyrimidin-4-yl]-N-[(1S)-1-(3-methoxyphenyl)ethyl]-2,5-diazabicyclo[2.2.2]octane-2-carboxamide] | < 10 µM
16 | COc1cccc([C@H](C)NC(=O)N2C3CCC2CN(c2ncnc4cc(-c5ccc(F)cc5)sc24)C3)c1 [P-0567, 3-[6-(4-fluorophenyl)thieno[3,2-d]pyrimidin-4-yl]-N-[(1S)-1-(3-methoxyphenyl)ethyl]-3,8-diazabicyclo[3.2.1]octane-8-carboxamide] | < 10 µM
17 | CS(=O)(=O)N1CC=C(c2cc3ncnc(N4CCN(C(=O)NCc5ccc(F)cc5)CC4)c3s2)CC1 [P-0568, N-[(4-fluorophenyl)methyl]-4-[6-(1-methylsulfonyl-3,6-dihydro-2H-pyridin-4-yl)thieno[3,2-d]pyrimidin-4-yl]piperazine-1-carboxamide] | < 10 µM
18 | O=C(C1CC1)N1CC=C(c2cc3ncnc(-c4ccc(NS(=O)(=O)c5ccc(F)cc5)cc4)c3s2)CC1 [P-0570, N-[4-[6-[1-(cyclopropanecarbonyl)-3,6-dihydro-2H-pyridin-4-yl]thieno[3,2-d]pyrimidin-4-yl]phenyl]-4-fluoro-benzenesulfonamide] | < 10 µM
19 | O=C(C1CC1)N1CC=C(c2cc3ncnc(-c4ccc(NS(=O)(=O)C5CC5)cc4)c3s2)CC1 [P-0571, N-[4-[6-[1-(cyclopropanecarbonyl)-3,6-dihydro-2H-pyridin-4-yl]thieno[3,2-d]pyrimidin-4-yl]phenyl]cyclopropanesulfonamide] | < 10 µM
20 | CS(=O)(=O)Nc1ccc(-c2ncnc3cc(C4=CCN(C(=O)C5CC5)CC4)sc23)cc1 [P-0572, N-[4-[6-[1-(cyclopropanecarbonyl)-3,6-dihydro-2H-pyridin-4-yl]thieno[3,2-d]pyrimidin-4-yl]phenyl]methanesulfonamide] | < 10 µM
21 | COc1cccc([C@H](C)NC(=O)N2CCN(c3ncnc4cc(C5=CC(C)(C)NC(C)(C)C5)sc34)CC2)c1 [P-0574, N-[(1S)-1-(3-methoxyphenyl)ethyl]-4-[6-(2,2,6,6-tetramethyl-1,3-dihydropyridin-4-yl)thieno[3,2-d]pyrimidin-4-yl]piperazine-1-carboxamide] | < 10 µM
22 | C[C@H](NC(=O)N1CCN(c2ncnc3cc(-c4ccc(F)cc4)sc23)CC1(C)C)c1ccc(Cl)cc1 [P-0575, N-[(1S)-1-(4-chlorophenyl)ethyl]-4-[6-(4-fluorophenyl)thieno[3,2-d]pyrimidin-4-yl]-2,2-dimethyl-piperazine-1-carboxamide] | < 10 µM
23 | COc1ccc([C@H](C)NC(=O)N2CCN(c3ncnc4cc(-c5ccc(F)cc5)sc34)CC2(C)C)cc1 [P-0576, 4-[6-(4-fluorophenyl)thieno[3,2-d]pyrimidin-4-yl]-N-[(1S)-1-(4-methoxyphenyl)ethyl]-2,2-dimethyl-piperazine-1-carboxamide] | < 10 µM
24 | C[C@H](NC(=O)N1CCN(c2ncnc3cc(-c4ccc(F)cc4)sc23)CC1(C)C)c1cccc(OC(F)F)c1 [P-0577, N-[(1S)-1-[3-(difluoromethoxy)phenyl]ethyl]-4-[6-(4-fluorophenyl)thieno[3,2-d]pyrimidin-4-yl]-2,2-dimethyl-piperazine-1-carboxamide] | < 10 µM
25 | C[C@H](NC(=O)N1CCN(c2ncnc3cc(-c4ccc(F)cc4)sc23)CC1(C)C)c1cccc(F)c1 [P-0578, N-[(1S)-1-(3-fluorophenyl)ethyl]-4-[6-(4-fluorophenyl)thieno[3,2-d]pyrimidin-4-yl]-2,2-dimethyl-piperazine-1-carboxamide] | < 10 µM
26 | C[C@H](NC(=O)N1CC=C(c2ncnc3cc(-c4ccc(F)cc4)sc23)CC1)c1cccc(Cl)c1 [P-0579, N-[(1S)-1-(3-chlorophenyl)ethyl]-4-[6-(4-fluorophenyl)thieno[3,2-d]pyrimidin-4-yl]-3,6-dihydro-2H-pyridine-1-carboxamide] | < 10 µM
27 | C[C@H](NC(=O)N1CCN(c2ncnc3cc(-c4ccc(F)cc4)sc23)CC1(C)C)c1cccc(Cl)c1 [P-0580, N-[(1S)-1-(3-chlorophenyl)ethyl]-4-[6-(4-fluorophenyl)thieno[3,2-d]pyrimidin-4-yl]-2,2-dimethyl-piperazine-1-carboxamide] | < 10 µM
28 | COc1cccc([C@H](C)NC(=O)N2CC=C(c3ncnc4cc(-c5ccc(F)cc5)sc34)CC2)c1 [P-0581, 4-[6-(4-fluorophenyl)thieno[3,2-d]pyrimidin-4-yl]-N-[(1S)-1-(3-methoxyphenyl)ethyl]-3,6-dihydro-2H-pyridine-1-carboxamide] | < 10 µM
29 | COc1cccc([C@H](C)NC(=O)N2CC=C(c3ncnc4cc(-c5cn(C)nc5C)sc34)CC2)c1 [P-0582, 4-[6-(1,3-dimethylpyrazol-4-yl)thieno[3,2-d]pyrimidin-4-yl]-N-[(1S)-1-(3-methoxyphenyl)ethyl]-3,6-dihydro-2H-pyridine-1-carboxamide] | < 10 µM
30 | Cc1ccc(S(=O)(=O)Nc2ccc(-c3ncnc4cc(C5=CCN(C(=O)C6CC6)CC5)sc34)cc2)cc1 [P-0583, N-[4-[6-[1-(cyclopropanecarbonyl)-3,6-dihydro-2H-pyridin-4-yl]thieno[3,2-d]pyrimidin-4-yl]phenyl]-4-methyl-benzenesulfonamide] | < 10 µM
